Some of the results follow.
Target: T1, OsSMF1 (Oryza sativa, UniProt Q6ZLB0 1-436)
T1 sequence: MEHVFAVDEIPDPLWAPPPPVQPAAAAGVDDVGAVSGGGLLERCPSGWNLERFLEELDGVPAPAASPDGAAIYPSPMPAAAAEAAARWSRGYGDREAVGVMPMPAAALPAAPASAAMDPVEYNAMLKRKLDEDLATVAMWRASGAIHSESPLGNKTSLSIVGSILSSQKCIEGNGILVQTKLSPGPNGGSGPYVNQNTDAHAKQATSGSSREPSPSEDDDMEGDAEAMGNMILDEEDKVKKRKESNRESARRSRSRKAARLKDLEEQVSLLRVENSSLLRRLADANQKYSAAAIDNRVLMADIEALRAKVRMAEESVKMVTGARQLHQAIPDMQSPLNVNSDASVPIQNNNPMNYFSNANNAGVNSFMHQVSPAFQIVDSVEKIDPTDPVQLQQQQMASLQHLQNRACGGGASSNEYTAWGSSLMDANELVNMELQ
Assay: protein-binding microarray (RPBM); PBS, 2% BSA, 51.3 ng/ul salmon testes DNA, 50 uM zinc acetate, 200 nM TF, 25 C, 1 h; high values mean tight binding
Settings: protein: recombinant; tags: N-terminal polyhistidine and DsRed monomer fusion (pET32a); chain copies: 2; label: CyDye5-dUTP incorporated in the synthesized complementary strand; 3' TTTTT single-stranded linker to array surface; dsDNA, one strand shown
How it was run: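 Binding signal is reported as fluorescence intensity per feature (arbitrary units) from an Axon 4000B scanner. Incubation used 200 nM of each Ni–NTA-purified, N-terminally polyhistidine- and DsRed-fused transcription factor from E. coli BL21-CodonPlus on a double-stranded custom Agilent array for 1 h at 25 °C, with 50 µM zinc acetate in the buffer, followed by washing.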

Compared with “ACGGAGGATGCGCCGCGCCATGTCAGCGGCCATGGGGTGCCGGAGTCACCTAGTGCAG”, “TCCCTGAACACAAAGCTACTGATGACTCGGTTCAGGCACACGGAGTCACCTAGTGCAG” is lower in binding signal: 8800 fluorescence intensity (a.u.) for the first, 4280 fluorescence intensity (a.u.) for the second.

Going from “CTCCGTTTTCACCCCTATGTATAGTTTATATGTAAATTGCCGGAGTCACCTAGTGCAG” to “ACCTCACGCAACTCACGTTCTTTGATCAAAGCCGTACTCACGGAGTCACCTAGTGCAG”, the binding signal rises from 3310 fluorescence intensity (a.u.) to 22900 fluorescence intensity (a.u.).

Going from “ACTAGCTAGCTAGGTGTGCCACGCACTCGCACTGCACGGACGGAGTCACCTAGTGCAG” to “GCTGAGAAGATTCCCGAGTGGAAGCCACGTGGCAGACTCCCGGAGTCACCTAGTGCAG”, the binding signal rises from 5860 fluorescence intensity (a.u.) to 14600 fluorescence intensity (a.u.).

First: GCATGCGGGTGAGGTGACAAGGACGCGGCCACGGGGATCACGGAGTCACCTAGTGCAG
Second: TATGTCCTGATTAGTTCTGGTCTACTGGTATGCTGTTTGCCGGAGTCACCTAGTGCAG
The binding signal of the first is lower: 4230 fluorescence intensity (a.u.) for the first, 35600 fluorescence intensity (a.u.) for the second.

First: CAACATATGCACTAACAAATGACAAACTTAGCAAAACTTGCGGAGTCACCTAGTGCAG
Second: AAAAGTAGGAGTAAAATCACAATTGAATCGTAAAGCAAGACGGAGTCACCTAGTGCAG
The binding signal of the first is higher: 35700 fluorescence intensity (a.u.) for the first, 4800 fluorescence intensity (a.u.) for the second.

First: AGAGCAGATCCCCTGTCACGCCGACGCCGCCGCCGCCACCCGGAGTCACCTAGTGCAG
Second: CATAGTGCAGGGGAGAAGCCAGGGAAGAGGGAGGTGACGTCGGAGTCACCTAGTGCAG
The binding signal of the first is higher: 5410 fluorescence intensity (a.u.) for the first, 3290 fluorescence intensity (a.u.) for the second.

Compared with “TGCCAATGTTCCAATTGGTGTTGTCATCTTTGGGTTACCACGGAGTCACCTAGTGCAG”, “GGAGAAAATTGCGGAGGGGATCCACAGTTCCAGCCGCGTGCGGAGTCACCTAGTGCAG” is lower in binding signal: 14100 fluorescence intensity (a.u.) for the first, 3190 fluorescence intensity (a.u.) for the second.

First: CCACCTCGTCACGCATGCGTGTTCAAACGTGAACTAATCACGGAGTCACCTAGTGCAG
Second: CGGCGCCGCCGATTTGATTCGCCCACCCCTAGGCCCCAGCCGGAGTCACCTAGTGCAG
The binding signal of the first is lower: 4340 fluorescence intensity (a.u.) for the first, 29300 fluorescence intensity (a.u.) for the second.

First: TACCGCAAAGATGAAGCTACCTTTTACCAGTTGTATATTGCGGAGTCACCTAGTGCAG
Second: GGAGGAGGAGGAGGAGGGATTGATTGGTGAGCTCGTGTTGCGGAGTCACCTAGTGCAG
The binding signal of the first is higher: 35100 fluorescence intensity (a.u.) for the first, 3940 fluorescence intensity (a.u.) for the second.

Going from “AATGACACAGATATGAGTCATCGAAGCAGGGGATCCCCAACGGAGTCACCTAGTGCAG” to “GCTGTGGCTTTTGCATCGCATGCATGCGTGCTTTGCCTGGCGGAGTCACCTAGTGCAG”, the binding signal falls from 7940 fluorescence intensity (a.u.) to 3160 fluorescence intensity (a.u.).

Going from “TTCTCTGTACACGTGGTGGCCCACCTGTGCACAACCTGCTCGGAGTCACCTAGTGCAG” to “TGTCAGGATGCCATGTCATCATCTGATCTCTTTCCCCTCCCGGAGTCACCTAGTGCAG”, the binding signal rises from 9230 fluorescence intensity (a.u.) to 21000 fluorescence intensity (a.u.).

Going from “CAACCAGGCGGCAACGACGCTATGCTGGGATGACTCCTCGCGGAGTCACCTAGTGCAG” to “TTTTGCTGCATTCGCCATCGTCATTGACGAGTCGATCTATCGGAGTCACCTAGTGCAG”, the binding signal rises from 3500 fluorescence intensity (a.u.) to 4670 fluorescence intensity (a.u.).

First: GTGGTACTAGTAGCTAGCTAGTGACACTTCAGAATCCTCTCGGAGTCACCTAGTGCAG
Second: AGTGATCGTCTTTATTCGAATAGCTCGTCCAAAGTTGTGACGGAGTCACCTAGTGCAG
The binding signal of the first is higher: 4520 fluorescence intensity (a.u.) for the first, 3160 fluorescence intensity (a.u.) for the second.

Going from “CGACGAGATGGTGATGAGGTGGTGGTGGTGGTGGACTGGTCGGAGTCACCTAGTGCAG” to “AAAACCTGTGCTTGTGCTGAGCTGCTGATACGCTGACATTCGGAGTCACCTAGTGCAG”, the binding signal falls from 5700 fluorescence intensity (a.u.) to 3170 fluorescence intensity (a.u.).

First: TGTCAGTTGTTTGTTTTACGTGGATTGTGATGAATACTAGCGGAGTCACCTAGTGCAG
Second: CAGTACTTGAAACATAATGTTTTCATACATTAGAGTAAAACGGAGTCACCTAGTGCAG
The binding signal of the first is lower: 3960 fluorescence intensity (a.u.) for the first, 32000 fluorescence intensity (a.u.) for the second.

First: TTTCTGATTTACGTGGCTTGTGAGTAGGGCGCCTCCTCATCGGAGTCACCTAGTGCAG
Second: CTCCAAATAAAATCTGCCACATGGGCCTCCTTTAAGTGTCCGGAGTCACCTAGTGCAG
The binding signal of the first is higher: 4960 fluorescence intensity (a.u.) for the first, 3660 fluorescence intensity (a.u.) for the second.

Compared with “ACAGGCTATTCTGCACTGAACAAGCTTCTTGGGCGGGAAGCGGAGTCACCTAGTGCAG”, “GACTTTCTCAAACACAGTCATGAACTCATGATACATGTCCCGGAGTCACCTAGTGCAG” is higher in binding signal: 3230 fluorescence intensity (a.u.) for the first, 4840 fluorescence intensity (a.u.) for the second.

Going from “ATCATTCATGCGCGTCTGGCTGCCCACTCCGCATATTCTGCGGAGTCACCTAGTGCAG” to “GTTTAGAATAGTTCCCGCAATGGCAAATGTCATTGTTTGTCGGAGTCACCTAGTGCAG”, the binding signal rises from 3540 fluorescence intensity (a.u.) to 5020 fluorescence intensity (a.u.).

First: CAGATGCTCCGTCATCACCTAGTCATCACAAGCATTCTTTCGGAGTCACCTAGTGCAG
Second: AAACAATTAATTCGGCAGAGAACATACTGAGTCATTTTGGCGGAGTCACCTAGTGCAG
The binding signal of the first is higher: 15300 fluorescence intensity (a.u.) for the first, 3900 fluorescence intensity (a.u.) for the second.

Compared with “TCATCTTCCTTAACAACTGCAGCATCACGTCATCGTCATCCGGAGTCACCTAGTGCAG”, “TATTGGTTTGTATCACGTCGTCATCAACACGATGAAGCTGCGGAGTCACCTAGTGCAG” is lower in binding signal: 5410 fluorescence intensity (a.u.) for the first, 4850 fluorescence intensity (a.u.) for the second.

First: AAATCATGACGTAATTAGGCTCAAAGGATTTGTCTCACAACGGAGTCACCTAGTGCAG
Second: AAACCAATGGGGCAAGAAGTAGCGTCAATGCGTGATACAGCGGAGTCACCTAGTGCAG
The binding signal of the first is higher: 4650 fluorescence intensity (a.u.) for the first, 3230 fluorescence intensity (a.u.) for the second.
